The values that follow come from PubChem BioAssay AID1347426 (Functional Genomics Laboratory (NCATS/FGL), 2020).

Among all 31,000 sequences or so, about 1,400 (4.5%) were called active.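 The calls were made as follows: active = median seed-adjusted z-score above 1 or below -1; inactive = the rest.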 The list shows a part of the results.

The assay is described as follows: Novel Modifiers of Survival Motor Neuron (SMN) Protein: Gene Identification via Genome-wide siRNA Screen.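 Also: luminescence tracks full-length SMN protein made from the SMN2 reporter.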 To be noted: HEK293T SMN2-luciferase reporter, siRNA knockdown, 72 h; actives lie on both sides. The procedure, abridged:
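siRNA screen, 10418 genes ×3 siRNAs; 1 pmol/well, lipid reverse transfection into HEK293T SMN2-luc reporter line. 72 h, 37 °C, 5% CO2; ONE-Glo readout. Data: neg-ctrl normalized, log10, MAD; hit = MAD >1.0 or < -1.0.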
For orientation: In a reporter assay the amount or activity of a reporter protein is the signal.
As for GCAACUCUUGAUGACAUAATT against SSB, the median seed-adjusted z-score was inactive: 0.

As to GUAUGGUCGGUUUACAAUATT against YES1, the median seed-adjusted z-score is inactive: -0.508.

In the case of AGUGGGACGUGUUUUCCGATT against STX11, the median seed-adjusted z-score was inactive: -0.518.

On to GAACUAGCUUGUUUUGACATT against KLF15, for which the median seed-adjusted z-score was inactive: -0.45.

As to GACAGGUAGUGAUCGCAUUTT against HERC4, the median seed-adjusted z-score was inactive: 0.00343.

Regarding UGAGGAUAGUGGGUCUGUATT against MEIS3, the median seed-adjusted z-score is inactive: 0.207.

As to GCUUCAUCCUGCACAAUAATT against PTGDS, the median seed-adjusted z-score is inactive: 0.48.

For the sequence CAAGGCAUGUACAAAGAAATT against FPR1, the median seed-adjusted z-score was inactive: 0.0229.

On to GUAUGUCACAAAUCCUUCATT against ZFP28, for which the median seed-adjusted z-score is inactive: 0.275.

For GGAUCUGACUAUUCGCACUTT against LRIG2, the median seed-adjusted z-score is inactive: 0.386.

As for CAACUUCGCUCCGUACUUUTT against CH25H, the median seed-adjusted z-score is inactive: -0.264.

On to CAACGACCGGAGGUAUAAATT against BPGM, for which the median seed-adjusted z-score was inactive: 0.408.

Consider CACUCGUAAUACCCUUAAATT against GGPS1, for which the median seed-adjusted z-score was inactive: -0.372.

Take GGUUUAUCUUUGAAGACCATT against SLC4A1: the median seed-adjusted z-score is inactive: -0.861.

For GAAGGAUGGUAUUCAGACUTT against GATA1, the median seed-adjusted z-score was inactive: 0.371.

Take GAUCGAUUUGGAGAACUUATT against IRX3: the median seed-adjusted z-score is inactive: -0.285.

As for GGACACUAGGAAAUCCUAATT against MMP16, the median seed-adjusted z-score is inactive: 0.144.

Take CGAGCAGGCUAUCAUCGAUTT against ANXA8L2: the median seed-adjusted z-score is inactive: -0.147.

For GGACAAAAAGGUUGAAUUATT against PDIA5, the median seed-adjusted z-score was inactive: 0.989.

Turning to CGAAGUGAUUUGAUACCAATT against GINS1, the median seed-adjusted z-score was inactive: -0.224.

Take GAAGGAUGCAGAAACGUGATT against ITGB8: the median seed-adjusted z-score is inactive: -0.0936.

GCAUUUGCAAUGAAGGCUATT against DNER: the median seed-adjusted z-score is inactive: -0.316.

In the case of UGCGCGAGAUGGUGGAAAATT against KCNG4, the median seed-adjusted z-score is inactive: 0.666.

For the sequence AGAAGAAUCUGAUCAGUUUTT against AKR1CL2, the median seed-adjusted z-score was inactive: -0.949.

Consider GGCCUUACCCUAAAUCGAATT against RARB, for which the median seed-adjusted z-score is inactive: 0.409.

Take CCUCCAUGCGCAAGACUAATT against SLC2A8: the median seed-adjusted z-score is inactive: -0.105.

Turning to CAAUAAUGGUGUUCGAAUATT against LECT2, the median seed-adjusted z-score is inactive: 0.0371.

For GAAACUGGACAGUAAGAAATT against HDAC4, the median seed-adjusted z-score is inactive: -0.0988.

For the sequence CCAGAUUGAUCGUAAGAAATT against ARFGAP2, the median seed-adjusted z-score was inactive: 0.0672.

Consider GCAAGAUCCGUGAGGAGUUTT against TUBB6, for which the median seed-adjusted z-score is inactive: 0.63.

GCGCAGCCUUUAGAGGAUATT against UBE2J1: the median seed-adjusted z-score was active: -1.2.

Consider GGUAAUCUUUAUGAAGAGATT against GCM1, for which the median seed-adjusted z-score is inactive: 0.0197.

Regarding GGUUUUGACUCACCUGAAATT against PTK6, the median seed-adjusted z-score is inactive: -0.295.

As to GCAAGACAGUUCAAUAUGATT against KCNAB1, the median seed-adjusted z-score was inactive: 0.721.

AAGUGGUGAUCGAGUUUAATT against MYL6B: the median seed-adjusted z-score is inactive: 0.11.

Take UCGUCCUCUUUAACCCUGATT against RXRA: the median seed-adjusted z-score was inactive: 0.304.

GCUUCGACAUUGAAUACAATT against DSCAML1: the median seed-adjusted z-score was inactive: 0.237.

Consider CAGUGAUCAUGGUAGACGATT against SLC24A3, for which the median seed-adjusted z-score is inactive: 0.0177.

For AGAGAGUUAUGUUUACCGATT against CTSB, the median seed-adjusted z-score was inactive: -0.31.

On to AGACACCCUUUGGACCACATT against ZFAND2A, for which the median seed-adjusted z-score was inactive: 0.

As to CCUCAUCUAUCAUCAGAGATT against ZNF613, the median seed-adjusted z-score is inactive: -0.189.

Take CCUAUGAGUGGUACAAUAATT against ITK: the median seed-adjusted z-score was inactive: -0.0372.

As for GAAGCUACAGAAUCUGGAATT against ARFGAP2, the median seed-adjusted z-score was inactive: 0.0672.

Take GCAUUUACACUGUAUAUUATT against POU4F2: the median seed-adjusted z-score was active: 1.46.

As to CAUUGACCGGAACCAAAAATT against CTNND1, the median seed-adjusted z-score was inactive: 0.38.

Turning to CGAAGUUCACUAUCGAACATT against DNAH11, the median seed-adjusted z-score was inactive: 0.104.

For the sequence CGAUGCAAGUUCUCGAAGATT against PDSS1, the median seed-adjusted z-score is inactive: -0.287.

Turning to GCUUCAAUGAGUUCCAAGATT against TMPRSS9, the median seed-adjusted z-score is inactive: 0.106.

Regarding AAGGGACAAUGAUAGUAGATT against TAL1, the median seed-adjusted z-score is inactive: -0.165.

For the sequence AGGCCUCAGUUACCACUAUTT against DPF2, the median seed-adjusted z-score is inactive: 0.373.

Regarding GAUCUAAGGAUGAAAUAGATT against RAD54L, the median seed-adjusted z-score was inactive: -0.393.

As to CACUGACAAUGAUCAUGGATT against SNRK, the median seed-adjusted z-score is inactive: 0.463.

On to GAAGGUUGUUUGCACAAGATT against TRAF6, for which the median seed-adjusted z-score was inactive: 0.324.

For the sequence CGAUGAGCCUGGAACGGAATT against ACSS1, the median seed-adjusted z-score was inactive: 0.243.

On to ACCGCUACCUUUCUCUGUATT against GPR3, for which the median seed-adjusted z-score is inactive: 0.

For the sequence GCAGUUAUUGGUACUAAUATT against MOAP1, the median seed-adjusted z-score was inactive: 0.0405.

With GAACCGCUACAAGAACAUUTT against PTPN6, the median seed-adjusted z-score is inactive: -0.515.

For GCGAGUGUGAGAAAACAUUTT against ZFP3, the median seed-adjusted z-score was inactive: 0.

Consider GCCUAUUAUGGAGAAAAGATT against HES1, for which the median seed-adjusted z-score was inactive: -0.262.

With CUUGGAAAUAGUCAGCAUATT against RARRES1, the median seed-adjusted z-score was inactive: -0.329.

As for GCUUACGGCUUGUACCUGATT against SFRS17A, the median seed-adjusted z-score was inactive: -0.389.

On to CACGAAUACUUCUUCCUGATT against FADS2, for which the median seed-adjusted z-score was inactive: 0.0769.

Consider GCAGCUGAGUUCAUCCGAATT against ZCRB1, for which the median seed-adjusted z-score is inactive: 0.265.

With GUCUACCAGUUGACCCGAATT against SMAD3, the median seed-adjusted z-score was inactive: -0.715.

Regarding CCACUGUCCUGUUUGAGAUTT against FKBP6, the median seed-adjusted z-score is active: -1.12.

As for UCAUGACCGGGUCCUAUAATT against PPP2R2D, the median seed-adjusted z-score was inactive: -0.118.

With GCUUUAGAGAUAAGUCAAATT against PRDM9, the median seed-adjusted z-score is inactive: -0.15.

Consider UAGUCAAACAGGCACAAUATT against HYAL2, for which the median seed-adjusted z-score is inactive: 0.056.

Take GAACUGCGCAUAAAAAGAATT against CASP5: the median seed-adjusted z-score is inactive: 0.655.
